Data published in the supplement of paper PMC6078165.
Values are relative to the signal before dosing, not to a vehicle control; the signal also falls without drug.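 Fibroblast labels denote human fibroblasts, mainly primary ones from uterus (C12385, HUF), lung (H6013), bone (Hs27A), adrenal (HADF) and skin (WS1), plus mammary HMF and breast cancer-associated Hs343T. Cancer cells are basal-like or mesenchymal-like triple-negative breast cancer lines. A hit is a response shift exceeding 3x replicate standard deviation. The tissue of the other fibroblasts is not given here.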

System: MDAMB231
Assay: relative JC-1 red fluorescence (viability) vs pre-drug, coculture with fibroblast (fraction); higher = more viable cancer cells
Method: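 JC-1 labelled TNBC cells cocultured 1:1 (1,500 cells each) with CellTrace Violet stained primary or stromal fibroblasts in 384-well plates in FluoroBrite medium, treated with one of 42 anticancer drugs at 0.1, 1, 10 or 100 uM. JC-1 red fluorescence (mitochondrial integrity in cancer cells only) was read by plate reader every 8 h for 72 h. Values are normalised to each well's pre-drug value. The stock of one drug was tenfold lower, so its dose labels may be too high.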

O=C(O)CCCc1ccc(N(CCCl)CCCl)cc1 [Chlorambucil]
relative JC-1 red fluorescence
Settings	8 h	16 h	24 h	32 h	40 h	48 h	56 h	64 h	72 h
0.1 µM, coculture fibroblast: C12385	0.788	0.716	0.829	0.695	0.659	0.662	0.642	0.68	0.681
0.1 µM, coculture fibroblast: H6013	0.862	0.8345	0.8113	0.79205	0.758	0.7584	0.74	0.7238	0.6829
0.1 µM, coculture fibroblast: H6019	0.7798	0.7046	0.776	0.6901	0.6634	0.6637	0.6335	0.6379	0.6073
0.1 µM, coculture fibroblast: H6076	0.836	0.784	0.773	0.776	0.774	0.773	0.796	0.801	0.686
0.1 µM, coculture fibroblast: H6231	0.837	0.752	0.704	0.67	0.63	0.606	0.566	0.557	0.538
0.1 µM, coculture fibroblast: HADF	0.853	0.826	0.782	0.758	0.72	0.693	0.669	0.659	0.615
0.1 µM, coculture fibroblast: HCFa	0.8654	0.8104	0.7831	0.7513	0.707	0.6745	0.6479	0.6214	0.5814
0.1 µM, coculture fibroblast: HCPF	0.844	0.756	0.691	0.667	0.612	0.568	0.536	0.511	0.495
0.1 µM, coculture fibroblast: HHSteC	0.8896	0.8546	0.8079	0.7643	0.7322	0.7151	0.6708	0.6549	0.624
0.1 µM, coculture fibroblast: HMF	0.8339	0.775	0.733	0.708	0.678	0.656	0.637	0.633	0.629
0.1 µM, coculture fibroblast: HPFa	0.91	0.883	0.848	0.807	0.788	0.753	0.706	0.671	0.616
0.1 µM, coculture fibroblast: HUF	0.791	0.686	0.7116	0.586	0.53	0.521	0.482	0.496	0.483
0.1 µM, coculture fibroblast: Hs5	0.8159	0.775	0.744	0.711	0.68	0.634	0.614	0.594	0.573
0.1 µM, coculture fibroblast: Hs27A	0.8616	0.82611	0.792	0.776	0.7353	0.709	0.689	0.672	0.621
0.1 µM, coculture fibroblast: Hs343T	0.895	0.781	0.711	0.655	0.599	0.547	0.496	0.471	0.443
0.1 µM, coculture fibroblast: WS1	0.7792	0.7322	0.72	0.634	0.593	0.591	0.551	0.554	0.532
1 µM, coculture fibroblast: C12385	0.758	0.7315	0.6141	0.6059	0.539	0.4976	0.446	0.434	0.415
1 µM, coculture fibroblast: H6013	0.899	0.862	0.793	0.757	0.709	0.6802	0.66	0.6351	0.603
1 µM, coculture fibroblast: H6019	0.747	0.675	0.601	0.573	0.511	0.48	0.425	0.398	0.347
1 µM, coculture fibroblast: H6076	0.943	0.873	0.807	0.781	0.726	0.679	0.637	0.622	0.607
1 µM, coculture fibroblast: H6231	0.898	0.803	0.734	0.7	0.654	0.618	0.593	0.5751	0.556
1 µM, coculture fibroblast: HADF	0.888	0.84	0.779	0.769	0.72361	0.66682	0.6495	0.626	0.579
1 µM, coculture fibroblast: HCFa	0.8858	0.8138	0.75345	0.712	0.661	0.6045	0.578	0.54	0.494
1 µM, coculture fibroblast: HCPF	0.88	0.768	0.688	0.661	0.592	0.551	0.513	0.482	0.457
1 µM, coculture fibroblast: HHSteC	0.898	0.826	0.778	0.729	0.677	0.641	0.593	0.575	0.531
1 µM, coculture fibroblast: HMF	0.8966	0.788	0.699	0.652	0.59	0.543	0.489	0.464	0.438
1 µM, coculture fibroblast: HPFa	0.953	0.9187	0.854	0.796	0.762	0.71	0.643	0.608	0.55
1 µM, coculture fibroblast: HUF	0.845	0.773	0.718	0.618	0.596	0.58	0.505	0.478	0.445
1 µM, coculture fibroblast: Hs5	0.893	0.811	0.7338	0.68658	0.629	0.577	0.531	0.505	0.466
1 µM, coculture fibroblast: Hs27A	0.88	0.83	0.8126	0.796	0.765	0.708	0.73	0.716	0.6818
1 µM, coculture fibroblast: Hs343T	0.916	0.842	0.784	0.754	0.711	0.669	0.61	0.581	0.544
1 µM, coculture fibroblast: WS1	0.7562	0.691	0.597	0.556	0.503	0.468	0.416	0.398	0.366
10 µM, coculture fibroblast: C12385	0.742	0.716	0.616	0.59	0.53	0.494	0.447	0.436	0.41
10 µM, coculture fibroblast: H6013	0.8888	0.832	0.786	0.75	0.702	0.676	0.672	0.646	0.602
10 µM, coculture fibroblast: H6019	0.796	0.727	0.687	0.639	0.581	0.561	0.519	0.506	0.476
10 µM, coculture fibroblast: H6076	0.853	0.761	0.701	0.6688	0.627	0.591	0.57	0.559	0.55
10 µM, coculture fibroblast: H6231	0.926	0.84	0.772	0.723	0.671	0.63	0.587	0.561	0.537
10 µM, coculture fibroblast: HADF	0.8719	0.846	0.814	0.787	0.738	0.699	0.677	0.653	0.612
10 µM, coculture fibroblast: HCFa	0.9179	0.854	0.814	0.779	0.727	0.679	0.655	0.624	0.579
10 µM, coculture fibroblast: HCPF	0.831	0.739	0.676	0.649	0.589	0.544	0.503	0.475	0.4585
10 µM, coculture fibroblast: HHSteC	0.887	0.8467	0.7953	0.752	0.704	0.66602	0.6302	0.601	0.56
10 µM, coculture fibroblast: HMF	0.877	0.803	0.737	0.703	0.656	0.623	0.577	0.555	0.535
10 µM, coculture fibroblast: HPFa	0.9187	0.901	0.854	0.795	0.779	0.726	0.669	0.63	0.569
10 µM, coculture fibroblast: HUF	0.857	0.738	0.755	0.638	0.572	0.554	0.5	0.5025	0.488
10 µM, coculture fibroblast: Hs5	0.867	0.798	0.7511	0.7089	0.666	0.609	0.5793	0.556	0.532
10 µM, coculture fibroblast: Hs27A	0.897	0.846	0.7966	0.7673	0.71449	0.6493	0.639	0.6155	0.564
10 µM, coculture fibroblast: Hs343T	0.866	0.76	0.687	0.6362	0.577	0.523	0.456	0.421	0.387
10 µM, coculture fibroblast: WS1	0.748	0.685	0.603	0.56	0.499	0.457	0.405	0.378	0.354
100 µM, coculture fibroblast: C12385	0.842	0.911	0.76	0.814	0.764	0.726	0.678	0.658	0.632
100 µM, coculture fibroblast: H6013	0.918	0.85	0.815	0.798	0.758	0.736	0.71	0.69	0.657
100 µM, coculture fibroblast: H6019	0.744	0.653	0.586	0.541	0.47	0.438	0.389	0.364	0.322
100 µM, coculture fibroblast: H6076	0.902	0.815	0.741	0.719	0.667	0.627	0.587	0.573	0.554
100 µM, coculture fibroblast: H6231	0.915	0.833	0.76	0.723	0.674	0.641	0.589	0.562	0.534
100 µM, coculture fibroblast: HADF	0.888	0.831	0.786	0.762	0.706	0.651	0.633	0.598	0.556
100 µM, coculture fibroblast: HCFa	0.9009	0.826	0.7803	0.751	0.685	0.638	0.608	0.571	0.517
100 µM, coculture fibroblast: HCPF	0.849	0.895	0.789	0.744	0.69	0.646	0.604	0.57	0.538
100 µM, coculture fibroblast: HHSteC	0.924	0.867	0.8285	0.7851	0.7404	0.693	0.639	0.592	0.549
100 µM, coculture fibroblast: HMF	0.881	0.79229	0.713	0.685	0.628	0.599	0.549	0.525	0.496
100 µM, coculture fibroblast: HPFa	0.954	0.9058	0.842	0.787	0.737	0.686	0.618	0.578	0.517
100 µM, coculture fibroblast: HUF	0.837	0.7508	0.685	0.594	0.518	0.485	0.436	0.4086	0.385
100 µM, coculture fibroblast: Hs5	0.888	0.81	0.738	0.685	0.635	0.577	0.542	0.518	0.5
100 µM, coculture fibroblast: Hs27A	0.8888	0.83028	0.784	0.752	0.697	0.635	0.637	0.615	0.574
100 µM, coculture fibroblast: Hs343T	0.843	0.743	0.675	0.627	0.574	0.522	0.468	0.44	0.412
100 µM, coculture fibroblast: WS1	0.7653	0.71	0.632	0.592	0.547	0.517	0.47	0.446	0.419
